The list shows a part of the results. The calls rarely recur for the same compound in another form.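 Kinases were expressed as nanoluciferase fusions in K562 cells and luminescence was read every 4 h between 2 and 18 h as percent of control, DMSO set to 100% and a positive control to 0%. A time point counts as decreased when the signal drops significantly (2 sigma). The hit call is the authors' own, does not follow from the count of time points alone, and its rule is not shown.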
Tests used:
Assay in all cases: kinase-Nluc reporter destabilization hit call (1 = scored as downregulated) (binary); higher = compound decreases kinase abundance
Settings in all cases: K562, 2-18 h
MAPK1 = MAPK1 (UniProt P28482)
MAPK4 = MAPK4 (UniProt P31152)
MAPKAPK2 = MAPKAPK2 (UniProt P49137)
MKNK1 = MKNK1 (UniProt Q9BUB5)
NTRK2 = NTRK2 (UniProt Q16620)
PAK4 = PAK4 (UniProt O96013)
PBK = PBK (UniProt Q96KB5)
PDGFRB = PDGFRB (UniProt P09619)
PDK1 = PDK1 (UniProt Q15118)
PDPK1 = PDPK1 (UniProt O15530)
PIK4CA = PIK4CA (UniProt P42356)
PIK4CB = PIK4CB (UniProt Q9UBF8)
PLK1 = PLK1 (UniProt P53350)
PRKAA1 = PRKAA1 (UniProt Q13131)
PRKCA = PRKCA (UniProt P17252)
PTK2 = PTK2 (UniProt Q05397)
PTK2B = PTK2B (UniProt Q14289)
RAF1 = RAF1 (UniProt P04049)
[1] = biological target: RAF1_S257L (clone: RAF1_mut) (UniProt P04049)
NTRK3 = NTRK3 (UniProt Q16288)

Chains of the proteins cited; added tags and fusions are not shown. Lines headed by an entry give the natural chain unless they say otherwise; changes in a name come on top.
UniProt P31152, whole entry: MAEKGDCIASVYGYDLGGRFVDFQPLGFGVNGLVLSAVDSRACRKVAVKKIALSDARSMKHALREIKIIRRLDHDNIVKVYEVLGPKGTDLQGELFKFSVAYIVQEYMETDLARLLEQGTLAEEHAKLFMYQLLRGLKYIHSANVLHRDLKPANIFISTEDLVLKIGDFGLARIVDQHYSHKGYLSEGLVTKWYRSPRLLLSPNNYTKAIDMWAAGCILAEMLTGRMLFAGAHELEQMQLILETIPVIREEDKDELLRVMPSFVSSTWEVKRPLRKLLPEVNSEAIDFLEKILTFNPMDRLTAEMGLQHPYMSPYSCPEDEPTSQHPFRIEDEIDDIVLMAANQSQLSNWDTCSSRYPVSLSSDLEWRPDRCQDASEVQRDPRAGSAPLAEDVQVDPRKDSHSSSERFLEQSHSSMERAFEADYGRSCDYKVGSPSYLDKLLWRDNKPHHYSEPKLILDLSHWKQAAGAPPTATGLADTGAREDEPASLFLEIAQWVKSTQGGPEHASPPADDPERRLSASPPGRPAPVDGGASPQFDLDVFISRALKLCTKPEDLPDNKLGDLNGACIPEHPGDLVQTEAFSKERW
UniProt P49137, whole entry, looked up: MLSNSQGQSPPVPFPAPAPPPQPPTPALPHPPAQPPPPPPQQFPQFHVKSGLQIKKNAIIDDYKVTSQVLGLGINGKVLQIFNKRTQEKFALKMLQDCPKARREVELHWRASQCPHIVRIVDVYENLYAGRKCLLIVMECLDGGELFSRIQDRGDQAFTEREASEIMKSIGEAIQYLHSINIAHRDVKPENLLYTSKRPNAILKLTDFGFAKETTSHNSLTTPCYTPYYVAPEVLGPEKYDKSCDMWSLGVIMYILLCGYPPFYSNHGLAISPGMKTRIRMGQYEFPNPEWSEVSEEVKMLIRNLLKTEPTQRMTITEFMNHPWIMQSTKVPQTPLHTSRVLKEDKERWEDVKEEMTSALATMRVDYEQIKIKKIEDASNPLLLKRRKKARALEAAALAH
UniProt Q16620, whole entry, looked up: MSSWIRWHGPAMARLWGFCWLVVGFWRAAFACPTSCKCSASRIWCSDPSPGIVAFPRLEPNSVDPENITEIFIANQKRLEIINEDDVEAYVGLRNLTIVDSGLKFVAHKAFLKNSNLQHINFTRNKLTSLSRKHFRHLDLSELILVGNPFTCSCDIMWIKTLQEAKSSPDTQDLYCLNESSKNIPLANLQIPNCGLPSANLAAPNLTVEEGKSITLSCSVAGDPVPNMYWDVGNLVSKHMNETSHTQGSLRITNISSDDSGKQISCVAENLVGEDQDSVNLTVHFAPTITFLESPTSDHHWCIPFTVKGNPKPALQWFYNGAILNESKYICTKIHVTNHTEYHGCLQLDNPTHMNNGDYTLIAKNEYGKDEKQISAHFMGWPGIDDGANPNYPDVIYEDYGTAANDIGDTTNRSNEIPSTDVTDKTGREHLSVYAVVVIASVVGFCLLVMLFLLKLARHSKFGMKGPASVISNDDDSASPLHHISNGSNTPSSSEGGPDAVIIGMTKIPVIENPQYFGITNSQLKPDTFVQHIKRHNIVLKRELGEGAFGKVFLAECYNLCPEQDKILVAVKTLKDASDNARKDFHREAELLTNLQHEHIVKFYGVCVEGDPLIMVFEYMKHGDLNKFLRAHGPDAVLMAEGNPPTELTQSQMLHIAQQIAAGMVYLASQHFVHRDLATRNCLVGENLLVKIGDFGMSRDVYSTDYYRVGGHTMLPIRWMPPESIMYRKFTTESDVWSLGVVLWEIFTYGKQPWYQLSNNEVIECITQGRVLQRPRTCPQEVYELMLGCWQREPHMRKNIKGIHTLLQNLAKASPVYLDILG
UniProt Q96KB5: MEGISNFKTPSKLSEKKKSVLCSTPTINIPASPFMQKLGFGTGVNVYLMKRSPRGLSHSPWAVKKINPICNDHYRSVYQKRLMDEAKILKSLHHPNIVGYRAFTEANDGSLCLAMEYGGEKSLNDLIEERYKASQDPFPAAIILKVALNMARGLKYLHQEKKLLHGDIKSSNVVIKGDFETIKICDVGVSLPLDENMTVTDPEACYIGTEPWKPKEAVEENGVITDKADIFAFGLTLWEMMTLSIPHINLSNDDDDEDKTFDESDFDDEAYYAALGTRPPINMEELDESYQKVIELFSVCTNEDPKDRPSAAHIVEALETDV
UniProt P09619, whole entry: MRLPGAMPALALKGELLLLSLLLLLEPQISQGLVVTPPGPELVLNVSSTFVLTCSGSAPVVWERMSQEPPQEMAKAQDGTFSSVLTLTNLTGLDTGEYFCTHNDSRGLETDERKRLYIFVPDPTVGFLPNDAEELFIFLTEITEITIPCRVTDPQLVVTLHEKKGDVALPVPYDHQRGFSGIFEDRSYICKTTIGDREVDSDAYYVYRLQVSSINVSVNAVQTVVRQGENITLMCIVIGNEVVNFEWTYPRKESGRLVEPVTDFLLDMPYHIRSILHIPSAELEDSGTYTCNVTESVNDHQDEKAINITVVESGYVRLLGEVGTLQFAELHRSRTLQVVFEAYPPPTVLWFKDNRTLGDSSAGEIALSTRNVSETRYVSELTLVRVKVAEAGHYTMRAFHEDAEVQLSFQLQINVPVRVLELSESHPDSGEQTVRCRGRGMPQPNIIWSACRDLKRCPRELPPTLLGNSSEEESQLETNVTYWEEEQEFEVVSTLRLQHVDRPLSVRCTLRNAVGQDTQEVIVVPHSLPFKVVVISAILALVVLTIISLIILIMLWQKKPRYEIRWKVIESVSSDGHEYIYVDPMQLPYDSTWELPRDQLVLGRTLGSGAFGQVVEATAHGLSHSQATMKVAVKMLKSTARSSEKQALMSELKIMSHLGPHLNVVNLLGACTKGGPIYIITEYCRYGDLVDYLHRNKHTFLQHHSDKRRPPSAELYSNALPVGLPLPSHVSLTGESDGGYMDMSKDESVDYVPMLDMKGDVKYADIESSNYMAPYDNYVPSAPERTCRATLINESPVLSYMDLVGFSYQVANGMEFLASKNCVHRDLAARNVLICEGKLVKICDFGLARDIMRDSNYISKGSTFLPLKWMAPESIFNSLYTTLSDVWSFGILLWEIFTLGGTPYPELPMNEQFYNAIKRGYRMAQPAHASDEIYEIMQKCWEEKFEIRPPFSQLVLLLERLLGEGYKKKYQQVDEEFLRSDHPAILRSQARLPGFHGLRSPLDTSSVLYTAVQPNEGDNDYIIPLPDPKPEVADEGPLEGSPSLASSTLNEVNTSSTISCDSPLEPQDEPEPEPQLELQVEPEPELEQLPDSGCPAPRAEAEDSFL
UniProt Q9UBF8: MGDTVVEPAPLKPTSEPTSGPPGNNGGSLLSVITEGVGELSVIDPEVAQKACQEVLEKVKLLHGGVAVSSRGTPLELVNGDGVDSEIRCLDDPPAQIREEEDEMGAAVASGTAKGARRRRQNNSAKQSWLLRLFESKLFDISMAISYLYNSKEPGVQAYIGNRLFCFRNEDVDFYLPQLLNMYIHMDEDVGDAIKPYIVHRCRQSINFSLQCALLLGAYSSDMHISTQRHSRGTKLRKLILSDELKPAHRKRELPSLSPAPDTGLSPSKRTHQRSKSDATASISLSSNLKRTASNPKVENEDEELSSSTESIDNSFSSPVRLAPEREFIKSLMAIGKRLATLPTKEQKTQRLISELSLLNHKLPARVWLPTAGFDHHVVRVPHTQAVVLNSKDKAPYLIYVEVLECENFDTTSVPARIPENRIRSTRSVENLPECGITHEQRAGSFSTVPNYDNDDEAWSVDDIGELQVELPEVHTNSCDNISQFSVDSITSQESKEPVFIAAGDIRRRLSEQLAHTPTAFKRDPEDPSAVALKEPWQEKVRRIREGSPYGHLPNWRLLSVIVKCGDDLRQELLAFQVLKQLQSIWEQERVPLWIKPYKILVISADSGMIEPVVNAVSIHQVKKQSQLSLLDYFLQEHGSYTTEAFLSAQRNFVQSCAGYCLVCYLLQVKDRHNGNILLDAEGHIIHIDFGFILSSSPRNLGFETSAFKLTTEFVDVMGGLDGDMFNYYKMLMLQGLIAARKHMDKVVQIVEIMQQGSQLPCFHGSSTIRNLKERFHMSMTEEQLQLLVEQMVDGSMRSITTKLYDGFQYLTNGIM
UniProt Q13131: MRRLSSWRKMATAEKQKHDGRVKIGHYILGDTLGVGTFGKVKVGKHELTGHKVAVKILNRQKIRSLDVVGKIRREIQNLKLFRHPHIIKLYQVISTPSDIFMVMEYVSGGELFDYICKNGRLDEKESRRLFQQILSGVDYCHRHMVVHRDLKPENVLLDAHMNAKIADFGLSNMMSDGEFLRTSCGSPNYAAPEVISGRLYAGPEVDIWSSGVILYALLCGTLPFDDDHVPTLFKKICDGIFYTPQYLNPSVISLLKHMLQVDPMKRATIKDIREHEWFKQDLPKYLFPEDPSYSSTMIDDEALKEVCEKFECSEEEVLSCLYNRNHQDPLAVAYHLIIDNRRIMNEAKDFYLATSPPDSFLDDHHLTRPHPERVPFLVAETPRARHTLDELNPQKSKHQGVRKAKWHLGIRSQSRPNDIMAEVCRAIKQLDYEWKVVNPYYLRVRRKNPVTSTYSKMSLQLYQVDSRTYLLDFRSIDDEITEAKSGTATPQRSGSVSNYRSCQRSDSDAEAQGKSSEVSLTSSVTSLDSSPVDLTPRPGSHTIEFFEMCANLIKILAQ
UniProt Q14289, whole entry, looked up: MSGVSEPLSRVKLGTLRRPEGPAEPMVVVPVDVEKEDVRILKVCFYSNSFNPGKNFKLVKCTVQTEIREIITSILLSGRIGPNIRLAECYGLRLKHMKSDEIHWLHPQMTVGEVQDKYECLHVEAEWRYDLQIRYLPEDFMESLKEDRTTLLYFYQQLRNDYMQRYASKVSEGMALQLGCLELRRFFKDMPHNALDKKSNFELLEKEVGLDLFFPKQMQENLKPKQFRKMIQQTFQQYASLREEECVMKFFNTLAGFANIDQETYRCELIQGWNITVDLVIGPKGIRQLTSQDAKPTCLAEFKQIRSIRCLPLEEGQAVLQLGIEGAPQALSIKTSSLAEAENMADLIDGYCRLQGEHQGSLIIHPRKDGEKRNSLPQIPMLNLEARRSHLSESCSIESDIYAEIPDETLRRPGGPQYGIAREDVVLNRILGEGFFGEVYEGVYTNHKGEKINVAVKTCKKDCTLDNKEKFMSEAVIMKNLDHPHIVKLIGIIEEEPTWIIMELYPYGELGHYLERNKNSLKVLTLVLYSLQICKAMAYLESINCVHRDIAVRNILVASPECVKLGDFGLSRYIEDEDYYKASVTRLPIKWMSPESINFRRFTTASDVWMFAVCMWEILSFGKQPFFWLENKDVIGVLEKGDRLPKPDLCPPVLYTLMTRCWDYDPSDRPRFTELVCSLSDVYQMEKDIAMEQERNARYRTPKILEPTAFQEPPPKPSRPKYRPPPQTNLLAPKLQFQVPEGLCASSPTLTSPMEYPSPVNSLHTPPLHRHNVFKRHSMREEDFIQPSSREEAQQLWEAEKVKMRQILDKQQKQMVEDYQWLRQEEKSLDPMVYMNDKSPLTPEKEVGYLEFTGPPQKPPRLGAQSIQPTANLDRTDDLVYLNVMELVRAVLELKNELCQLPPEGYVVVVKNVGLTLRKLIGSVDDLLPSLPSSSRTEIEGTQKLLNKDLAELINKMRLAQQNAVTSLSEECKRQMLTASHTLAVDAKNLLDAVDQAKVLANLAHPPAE
UniProt Q16288, whole entry, looked up: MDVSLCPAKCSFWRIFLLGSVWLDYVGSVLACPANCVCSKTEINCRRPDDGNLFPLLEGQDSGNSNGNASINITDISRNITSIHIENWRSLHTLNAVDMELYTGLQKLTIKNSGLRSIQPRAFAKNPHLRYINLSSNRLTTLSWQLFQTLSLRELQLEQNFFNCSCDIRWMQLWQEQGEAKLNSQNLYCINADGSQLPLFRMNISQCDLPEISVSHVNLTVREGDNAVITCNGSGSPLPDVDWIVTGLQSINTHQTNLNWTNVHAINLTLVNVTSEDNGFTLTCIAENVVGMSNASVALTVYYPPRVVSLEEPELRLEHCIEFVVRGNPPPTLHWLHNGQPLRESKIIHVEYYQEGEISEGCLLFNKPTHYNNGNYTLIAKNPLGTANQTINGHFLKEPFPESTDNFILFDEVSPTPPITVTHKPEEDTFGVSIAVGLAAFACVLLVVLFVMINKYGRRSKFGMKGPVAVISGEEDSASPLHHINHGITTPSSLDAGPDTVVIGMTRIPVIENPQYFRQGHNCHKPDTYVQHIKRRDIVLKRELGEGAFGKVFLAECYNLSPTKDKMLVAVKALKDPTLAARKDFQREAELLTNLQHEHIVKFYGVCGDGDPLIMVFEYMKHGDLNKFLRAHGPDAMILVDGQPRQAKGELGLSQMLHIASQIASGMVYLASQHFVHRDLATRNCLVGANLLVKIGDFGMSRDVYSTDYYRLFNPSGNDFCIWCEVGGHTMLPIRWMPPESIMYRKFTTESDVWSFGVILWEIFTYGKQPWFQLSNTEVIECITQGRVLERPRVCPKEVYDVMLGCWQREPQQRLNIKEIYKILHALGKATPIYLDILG

Measured: kinase-Nluc reporter destabilization hit call

C[C@@]1(C(=O)Nc2ccc(F)nc2)CCCN1c1nc(Nc2cc(C3CC3)n[nH]2)c2cccn2n1
inactive: MAPK1; 10 µM 0 | MAPK4; 10 µM 0 | MAPKAPK2; 10 µM 0 | MKNK1; 10 µM 0 | NTRK2; 10 µM 0 | PAK4; 10 µM 0 | PBK; 10 µM 0 | PDGFRB; 10 µM 0 | PDK1; 10 µM 0 | PDPK1; 10 µM 0 | PIK4CA; 10 µM 0 | PIK4CB; 10 µM 0 | PLK1; 10 µM 0 | PRKAA1; 10 µM 0 | PRKCA; 10 µM 0 | PTK2; 10 µM 0 | PTK2B; 10 µM 0 | RAF1; 10 µM 0 | [1]; 10 µM 0

CCOc1cc2ncc(C#N)c(Nc3ccc(F)c(Cl)c3)c2cc1NC(=O)/C=C/CN(C)C [Pelitinib]
inactive: MAPK1; 2.5 µM 0 | MAPK4; 2.5 µM 0 | MAPKAPK2; 2.5 µM 0 | MKNK1; 2.5 µM 0 | NTRK2; 2.5 µM 0 | NTRK3; 2.5 µM 0 | PAK4; 2.5 µM 0 | PBK; 2.5 µM 0 | PDGFRB; 2.5 µM 0 | PDK1; 2.5 µM 0 | PDPK1; 2.5 µM 0 | PIK4CA; 2.5 µM 0 | PIK4CB; 2.5 µM 0 | PLK1; 2.5 µM 0 | PRKAA1; 2.5 µM 0 | PRKCA; 2.5 µM 0 | PTK2; 2.5 µM 0 | PTK2B; 2.5 µM 0 | RAF1; 2.5 µM 0 | [1]; 2.5 µM 0

COc1cc2/c(=N/c3ccc(Br)cc3F)nc[nH]c2cc1OCC1CCN(C)CC1 [Vandetanib]
inactive: MAPK1; 2.5 µM 0 | MAPK4; 2.5 µM 0 | MAPKAPK2; 2.5 µM 0 | MKNK1; 2.5 µM 0 | NTRK2; 2.5 µM 0 | NTRK3; 2.5 µM 0 | PAK4; 2.5 µM 0 | PBK; 2.5 µM 0 | PDK1; 2.5 µM 0 | PDPK1; 2.5 µM 0 | PIK4CA; 2.5 µM 0 | PIK4CB; 2.5 µM 0 | PLK1; 2.5 µM 0 | PRKAA1; 2.5 µM 0 | PRKCA; 2.5 µM 0 | PTK2; 2.5 µM 0 | PTK2B; 2.5 µM 0 | RAF1; 2.5 µM 0 | [1]; 2.5 µM 0

Fc1ccc(-c2nc(-c3ccc4ccccc4c3F)[nH]c2-c2ccncc2)cc1
inactive: MAPK1; 10 µM 0 | MAPK4; 10 µM 0 | MAPKAPK2; 10 µM 0 | MKNK1; 10 µM 0 | NTRK2; 10 µM 0 | NTRK3; 10 µM 0 | PAK4; 10 µM 0 | PBK; 10 µM 0 | PDGFRB; 10 µM 0 | PDK1; 10 µM 0 | PDPK1; 10 µM 0 | PIK4CA; 10 µM 0 | PIK4CB; 10 µM 0 | PLK1; 10 µM 0 | PRKAA1; 10 µM 0 | PRKCA; 10 µM 0 | PTK2B; 10 µM 0 | [1]; 10 µM 0
active: PTK2; 10 µM 1

CN1CCN(c2ccc3nc(-c4c(N)c5c(F)cccc5[nH]c4=O)[nH]c3c2)CC1 [Dovitinib (lactate)]
inactive: MAPK1; 2.5 µM 0 | MAPK4; 2.5 µM 0 | MAPKAPK2; 2.5 µM 0 | MKNK1; 2.5 µM 0 | NTRK2; 2.5 µM 0 | PAK4; 2.5 µM 0 | PBK; 2.5 µM 0 | PDGFRB; 2.5 µM 0 | PDK1; 2.5 µM 0 | PDPK1; 2.5 µM 0 | PIK4CA; 2.5 µM 0 | PIK4CB; 2.5 µM 0 | PLK1; 2.5 µM 0 | PRKAA1; 2.5 µM 0 | PRKCA; 2.5 µM 0 | PTK2B; 2.5 µM 0 | RAF1; 2.5 µM 0 | [1]; 2.5 µM 0

Cc1ccc(-n2nc(C(C)(C)C)cc2NC(=O)Nc2ccc(OCCN3CCOCC3)c3ccccc23)cc1 [Doramapimod]
inactive: MAPK1; 10 µM 0 | MAPK4; 10 µM 0 | MAPKAPK2; 10 µM 0 | MKNK1; 10 µM 0 | NTRK2; 10 µM 0 | PAK4; 10 µM 0 | PBK; 10 µM 0 | PDGFRB; 10 µM 0 | PDK1; 10 µM 0 | PDPK1; 10 µM 0 | PIK4CA; 10 µM 0 | PIK4CB; 10 µM 0 | PLK1; 10 µM 0 | PRKAA1; 10 µM 0 | PRKCA; 10 µM 0 | RAF1; 10 µM 0 | [1]; 10 µM 0

O=C(Nc1cccc(Cl)c1)Nc1ncc(CCNc2ncnc3ccsc23)s1 [SNS-314 (mesylate)]
inactive: MAPK1; 10 µM 0 | MAPK4; 10 µM 0 | MAPKAPK2; 10 µM 0 | MKNK1; 10 µM 0 | NTRK2; 10 µM 0 | NTRK3; 10 µM 0 | PAK4; 10 µM 0 | PBK; 10 µM 0 | PDK1; 10 µM 0 | PDPK1; 10 µM 0 | PIK4CA; 10 µM 0 | PIK4CB; 10 µM 0 | PLK1; 10 µM 0 | PRKAA1; 10 µM 0 | PRKCA; 10 µM 0 | PTK2; 10 µM 0 | PTK2B; 10 µM 0 | RAF1; 10 µM 0 | [1]; 10 µM 0

COc1ccc(-c2c[nH]c3nccc(-c4ccsc4)c23)c(OC)c1
inactive: MAPK1; 10 µM 0 | MAPK4; 10 µM 0 | MAPKAPK2; 10 µM 0 | MKNK1; 10 µM 0 | NTRK2; 10 µM 0 | NTRK3; 10 µM 0 | PAK4; 10 µM 0 | PBK; 10 µM 0 | PDGFRB; 10 µM 0 | PDK1; 10 µM 0 | PDPK1; 10 µM 0 | PIK4CA; 10 µM 0 | PIK4CB; 10 µM 0 | PLK1; 10 µM 0 | PRKCA; 10 µM 0 | PTK2; 10 µM 0 | PTK2B; 10 µM 0 | RAF1; 10 µM 0 | [1]; 10 µM 0

CCN(CC)CCNC(=O)c1c(C)[nH]c(/C=C2\C(=O)Nc3ccc(F)cc32)c1C [Sunitinib]
inactive: MAPK1; 2.5 µM 0 | MAPK4; 2.5 µM 0 | MAPKAPK2; 2.5 µM 0 | MKNK1; 2.5 µM 0 | NTRK2; 2.5 µM 0 | PAK4; 2.5 µM 0 | PBK; 2.5 µM 0 | PDGFRB; 2.5 µM 0 | PDK1; 2.5 µM 0 | PDPK1; 2.5 µM 0 | PIK4CA; 2.5 µM 0 | PIK4CB; 2.5 µM 0 | PLK1; 2.5 µM 0 | PRKAA1; 2.5 µM 0 | PRKCA; 2.5 µM 0 | PTK2B; 2.5 µM 0 | RAF1; 2.5 µM 0 | [1]; 2.5 µM 0

CC#CC(=O)N1CCC[C@H]1c1nc(-c2ccc(C(=O)Nc3ccccn3)cc2)c2c(N)nccn12 [Acalabrutinib]
inactive: MAPK1; 10 µM 0 | MAPK4; 10 µM 0 | MAPKAPK2; 10 µM 0 | MKNK1; 10 µM 0 | NTRK2; 10 µM 0 | NTRK3; 10 µM 0 | PAK4; 10 µM 0 | PBK; 10 µM 0 | PDGFRB; 10 µM 0 | PDK1; 10 µM 0 | PDPK1; 10 µM 0 | PIK4CA; 10 µM 0 | PIK4CB; 10 µM 0 | PLK1; 10 µM 0 | PRKAA1; 10 µM 0 | PRKCA; 10 µM 0 | PTK2; 10 µM 0 | PTK2B; 10 µM 0 | RAF1; 10 µM 0 | [1]; 10 µM 0

N#CC(=Cc1cc(Cl)cc(Cl)c1)c1cccnc1
inactive: MAPK4; 10 µM 0 | MKNK1; 10 µM 0 | NTRK3; 10 µM 0 | PAK4; 10 µM 0 | PDGFRB; 10 µM 0 | PLK1; 10 µM 0 | PTK2; 10 µM 0 | RAF1; 10 µM 0

Cc1[nH]c(/C=C2\C(=O)Nc3ccc(F)cc32)c(C)c1C(=O)NC[C@H](O)CN1CCOCC1
inactive: MAPK1; 2.5 µM 0 | MAPK4; 2.5 µM 0 | MAPKAPK2; 2.5 µM 0 | MKNK1; 2.5 µM 0 | NTRK2; 2.5 µM 0 | PAK4; 2.5 µM 0 | PBK; 2.5 µM 0 | PDGFRB; 2.5 µM 0 | PDK1; 2.5 µM 0 | PDPK1; 2.5 µM 0 | PIK4CA; 2.5 µM 0 | PIK4CB; 2.5 µM 0 | PLK1; 2.5 µM 0 | PRKAA1; 2.5 µM 0 | PRKCA; 2.5 µM 0 | PTK2; 2.5 µM 0 | RAF1; 2.5 µM 0 | [1]; 2.5 µM 0

At a glance, 2 of the compounds above.
CN1CCN(c2ccc3nc(-c4c(N)c5c(F)cccc5[nH]c4=O)[nH]c3c2)CC1 [Dovitinib (lactate)]
inactive: MAPK1; 2.5 µM 0 | MAPK4; 2.5 µM 0 | MAPKAPK2; 2.5 µM 0 | MKNK1; 2.5 µM 0 | NTRK2; 2.5 µM 0 | PAK4; 2.5 µM 0 | PBK; 2.5 µM 0 | PDGFRB; 2.5 µM 0 | PDK1; 2.5 µM 0 | PDPK1; 2.5 µM 0 | PIK4CA; 2.5 µM 0 | PIK4CB; 2.5 µM 0 | PLK1; 2.5 µM 0 | PRKAA1; 2.5 µM 0 | PRKCA; 2.5 µM 0 | PTK2B; 2.5 µM 0 | RAF1; 2.5 µM 0 | [1]; 2.5 µM 0

Cc1ccc(-n2nc(C(C)(C)C)cc2NC(=O)Nc2ccc(OCCN3CCOCC3)c3ccccc23)cc1 [Doramapimod]
inactive: MAPK1; 10 µM 0 | MAPK4; 10 µM 0 | MAPKAPK2; 10 µM 0 | MKNK1; 10 µM 0 | NTRK2; 10 µM 0 | PAK4; 10 µM 0 | PBK; 10 µM 0 | PDGFRB; 10 µM 0 | PDK1; 10 µM 0 | PDPK1; 10 µM 0 | PIK4CA; 10 µM 0 | PIK4CB; 10 µM 0 | PLK1; 10 µM 0 | PRKAA1; 10 µM 0 | PRKCA; 10 µM 0 | RAF1; 10 µM 0 | [1]; 10 µM 0

The results go on.

CC(C)n1nc(-c2cc3cc(O)ccc3[nH]2)c2c(N)ncnc21 [Torkinib]
inactive: MAPK1; 2.5 µM 0 | MAPK4; 2.5 µM 0 | MAPKAPK2; 2.5 µM 0 | MKNK1; 2.5 µM 0 | NTRK3; 2.5 µM 0 | PAK4; 2.5 µM 0 | PBK; 2.5 µM 0 | PDGFRB; 2.5 µM 0 | PDK1; 2.5 µM 0 | PDPK1; 2.5 µM 0 | PIK4CA; 2.5 µM 0 | PIK4CB; 2.5 µM 0 | PLK1; 2.5 µM 0 | PRKAA1; 2.5 µM 0 | PRKCA; 2.5 µM 0 | PTK2; 2.5 µM 0 | PTK2B; 2.5 µM 0 | RAF1; 2.5 µM 0 | [1]; 2.5 µM 0

From the supplement of paper PMC12823440, “Inhibitors supercharge kinase turnover through native proteolytic circuits” (Nature, 2025)
